This assay concerns the target human fibronectin (human). Briefly: ELISA; human glycoproteins coated on 96-well plates (5 ug/mL in 75 mM sodium carbonate buffer pH 9.6, 18 h at 4°C); blocked with 3% fish gelatin; rPepO (10 to 50 ug/mL) or rCnmA (0.125 to 2 ug/mL) in 50 mM HEPES pH 7.4, 150 mM NaCl, 2 mM CaCl2, 50 ug/mL BSA, 2 h at 37°C; bound protein detected with rabbit antiserum and peroxidase conjugate, A450 nm; wells with 1% BSA as control; both purified. For orientation: An ELISA detects its analyte on a solid surface through an enzyme-linked reagent.

Results are given in words; binding and its absence hold for the method and conditions named. Binding can be weak; no strength is given. Sequences can lack the tags named with a protein.

B1: His-tagged PepO recombinant protein (rPepO), endopeptidase O of Streptococcus mutans (protein, UniProt I6L8Y4 1-631)
chain: MVRLQDDFYNAVNGQWEEAAVIPDDKPRTGGFSDLADDIEDLMLETTDKWLDGKDVPDDSILQNFVKFHRQVADYDAREETGVKPVLPLIEEYKSLTSFADFASNIATYEMAGKPNELPFGVAPDFMNAQMNVLWAEAPNLILPDTTYYAEGNDKGKELLAKWRTMQEELLPKFGFEEAEIKDLLDKVLTLDAKLAQYVLSSEESSEYVKLYHPYDWADFTKLTPELPLDAIFTQILGQKPDKVIVPEERFWTNFAAEFYSEKNWPFLKATLVLAAASSYNSYLTDDIRILSGSYNRALSGTPQAMGKKKAAFYLAQGPYNQALGLWYAGEKFSPEAKKDVEAKVATMIEVYKERLHKTDWLAQETRNKAITKLNVITPHIGYPEQLPKTYAQKIIDDNLSLVENAQNLAKISIAYNWSKWNQPVDRSEWHMPAHMVNAYYDPQQNQIVFPAAILQAPFYSLEQSSSANYGGIGAVIAHEISHAFDTNGASFDENGSLNNWWTDEDYAAFKKRTDRVVEQFEGLDSYGAKVNGQLTVSENVADLGGLACALEAAKREADFSVRDFFINFATIWRMKARDEYMQMLASIDVHAPAKWRTNVTITNFDEFHQEFAVKEGDGMWRDEDKRVIIW
B1: the binding entry is recorded as “binds”.

These data come from article PMC7239026.
